The list does not hold the whole screen: it gathers tests that were run many times, whatever their T/C, doses with no T/C, and many T/C values between a quarter and a half above the control. Other doses and runs of a compound stand elsewhere. T/C gives the treated animals as a percentage of the vehicle group. Schedule codes are those of the source, taken here to give the interval after Q, in days (D) or hours (H), and the number of doses after X. Some entries give survivors of the animals treated and no T/C: the source holds a T/C of zero for them, seemingly a mark for toxic or unscored doses. Counts of survivors are from the toxicity check (mostly the fifth day) where no day follows; animals may have died later. Some entries hold several experiments; the values are given in rising order.
Test system: MX-1 breast xenograft, intrarenal, nude mice, tumor weight
Experiment: NCI In Vivo Anticancer Drug Screen. Data for tumor model Human Mammary Carcinoma MX-1 Xenograft (intrarenal inoculation) in NU/NU BALB/C (nude) mice
Conditions: T/C endpoint: mean tumor weight change, higher T/C = larger tumour; for T/C: evaluated on day 11
Method in brief: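 Mice w/ transplanted tumors, drug vs vehicle; endpoint survival or tumor size; value = T/C.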

[1] = dose: 600.0 mg/kg/injection, schedule: Q04DX003 (ip), vehicle: saline with Tween-80
[2] = dose: 1200.0 mg/kg/injection, schedule: Q04DX003 (ip), vehicle: saline with Tween-80
[3] = dose: 400.0 mg/kg/injection, schedule: Q04DX003 (ip), vehicle: saline with Tween-80
[4] = dose: 800.0 mg/kg/injection, schedule: Q04DX003 (ip), vehicle: saline with Tween-80

N#CCS(=O)(=O)c1cccc[n+]1[O-]
survivor count [1]: 1 of 6 on day 11
survivor count [2]: 0 of 6 on day 11

CN(Cc1cnc2nc(N)nc(N)c2n1)c1c(Cl)cc(C(=O)NC(CCC(=O)O)C(=O)O)cc1Cl (stereo not drawn)
survivor count (dose: 100.0 mg/kg/injection, schedule: Q01DX010 (sc), vehicle: Klucel (hydroxypropylcellulose) (HPC)): 0 of 3 on day 11

S=C(NCNC(=S)c1ccncc1)c1ccncc1
T/C (dose: 150.0 mg/kg/injection, schedule: Q04DX003 (ip), vehicle: saline with Tween-80): 136 % of control
survivor count [2]: 1 of 6 on day 11

NC(=O)c1[nH]cnc1O
survivor count [3]: 3 of 6 on day 11
survivor count [4]: 0 of 6 on day 11

[Cl][Hg][Cl]
T/C (dose: 2.5 mg/kg/injection, schedule: Q04DX003 (ip), vehicle: saline): 126 % of control
survivor count (dose: 10.0 mg/kg/injection, schedule: Q04DX003 (ip), vehicle: saline): 0 of 6 on day 11
survivor count (dose: 20.0 mg/kg/injection, schedule: Q04DX003 (ip), vehicle: saline): 0 of 6 on day 11

NC(=S)c1ncn(C2OC(COC=O)C(OC=O)C2OC=O)c1NC=O (stereo not drawn)
survivor count (dose: 800.0 mg/kg/injection, schedule: Q04DX003 (ip), vehicle: Klucel (hydroxypropylcellulose) (HPC)): 1 of 6 on day 11
survivor count [4]: 1 of 6 on day 11

O=C(Nc1cccnc1)c1ccc([N+](=O)[O-])s1
survivor count (dose: 400.0 mg/kg/injection, schedule: Q04DX003 (ip), vehicle: saline): 3 of 6 on day 11

CN1CCN(c2ccc([N+](=O)[O-])c3no[n+]([O-])c23)CC1
survivor count (dose: 300.0 mg/kg/injection, schedule: Q04DX003 (sc), vehicle: saline with Tween-80): 2 of 6 on day 11

COc1ccc2oc3c(ccc[n+]3C)c(=O)c2c1
T/C (dose: 100.0 mg/kg/injection, schedule: Q04DX003 (ip), vehicle: saline with Tween-80): 126 % of control
survivor count [3]: 3 of 6 on day 11
survivor count [4]: 0 of 6 on day 11

CN=C(N)N/N=C(\C)c1ccc2sc3ccc(/C(C)=N/NC(N)=NC)cc3c2c1
survivor count [1]: 0 of 6 on day 11
survivor count [2]: 0 of 6 on day 11

CN(CO)c1nc(N(C)CO)nc(N(C)CO)n1
survivor count (dose: 50.0 mg/kg/injection, schedule: Q01DX010 (sc), vehicle: saline): 1 of 2 on day 11
survivor count (dose: 200.0 mg/kg/injection, schedule: Q01DX010 (sc), vehicle: saline): 0 of 2 on day 11

c1ccc2[nH]c(CN(CCN(Cc3nc4ccccc4[nH]3)Cc3nc4ccccc4[nH]3)Cc3nc4ccccc4[nH]3)nc2c1
survivor count (dose: 50.0 mg/kg/injection, schedule: Q04DX003 (ip), vehicle: DMSO): 0 of 6 on day 11 and 2 of 6 on day 11
survivor count (dose: 100.0 mg/kg/injection, schedule: Q04DX003 (ip), vehicle: DMSO): 0 of 6 on day 11
survivor count (dose: 200.0 mg/kg/injection, schedule: Q04DX003 (ip), vehicle: DMSO): 0 of 6 on day 11
survivor count (dose: 400.0 mg/kg/injection, schedule: Q04DX003 (ip), vehicle: DMSO): 0 of 6 on day 11

CCCCN1C(=O)N(c2ccc(OCC)cc2)C2N(CCCC)C1C(C)(C)C2(C)C (stereo not drawn)
survivor count (dose: 240.0 mg/kg/injection, schedule: Q04DX003 (ip), vehicle: saline with Tween-80): 0 of 6 on day 11
survivor count (dose: 480.0 mg/kg/injection, schedule: Q04DX003 (ip), vehicle: saline with Tween-80): 0 of 6 on day 11
survivor count (dose: 960.0 mg/kg/injection, schedule: Q04DX003 (ip), vehicle: saline with Tween-80): 0 of 6 on day 11
